# Experimental data from PubChem BioAssay AID1347075 (National Center for Advancing Translational Sciences (NCATS), 2019).
# The campaign covered roughly 400,000 compounds. About 5,500 (1.4%) were called active. The inconclusive results got no clear call from the source; some entries with a clear call stand among them for comparison. The call rests on the fitted dose curve; in most records, active means well fitted cell-killing curve with a large enough effect; inconclusive means small, poorly fitted or top-dose-only effect, or effect the other way; inactive means flat fitted curve, though single readings scatter. Where the call is inconclusive, the potency comes from a doubtful curve fit.
# Assay: qHTS assay for MDR1-selective chemotherapeutics: Primary screen using the parental adenocarcinoma cell KB-3-1; further: nearly all actives have a fitted effect of over 60% in size
# Conditions: KB-3-1 viability, CellTiter-Glo ATP luminescence, 72 h; activity change, negative = cytotoxic: at 46.1 µM (top of the series)
# Summary of the method: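 Here the drug-naive KB-3-1 line serves as comparator for MDR sub-line selectivity; cells received compound titrations, 72 h at 37 °C, then CellTiter-Glo readout.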
# On the % scale 0 is the no-effect control and ±100 the full control effect; potency means the concentration at half of the fitted maximal effect.
SMILES,"activity change, negative = cytotoxic",Potency
O=C(CSc1ncc2c(n1)-c1ccccc1N(Cc1ccc(Cl)cc1)S2(=O)=O)c1ccccc1,inactive: -27.7%,
Cc1ccccc1NC(=O)C(=Cc1ccc(C(=O)O)cc1)C(=O)Nc1ccccc1C,,"inconclusive: 20.6 µM [cytotoxic, single point]"
Oc1ccc2ccccc2c1/C=C/c1ccc2c(Br)cc(Br)c(O)c2n1,,"inconclusive: 3.26 µM [cytotoxic, full curve, poor fit]"
CCOC(=O)N1CN(C(=O)OCC)CN(C(=O)OCC)C1,inactive: -1.65%,
COc1cc(-c2c(C#N)c(N)nc(SCc3ccncc3)c2C#N)cc(OC)c1OC,inactive: -1.43%,
O=C(COc1ccc(Cl)cc1Cl)Nc1ccccn1,,"inconclusive: 16.4 µM [cytotoxic, partial curve]"
CCn1cc(C(=O)O)c(=O)c2cc(F)c(N3CCN(C(=S)NC(=O)c4ccc(Br)cc4)CC3)cc21,,"inconclusive: 29.1 µM [cytotoxic, single point]"
CCCc1c(-c2cccc(Br)c2)ncn1Cc1ccccc1OC,,"inconclusive: 29.1 µM [cytotoxic, single point]"
CCCS(=O)(=O)NCCc1cc2c(OC)ccc(OC)c2[nH]c1=O,inactive: 5.52%,
CC(C)(C)NC(=O)CSc1ncnc2c1nnn2Cc1ccccc1Cl,inactive: 1.5%,
COc1cc(C(=O)NCC(=O)N/N=C/c2ccc(-c3cccc([N+](=O)[O-])c3)o2)cc(OC)c1OC,,"inconclusive: 16.4 µM [rising, partial curve, poor fit]"
CCCN(CCC)C(=O)C(c1ccccc1)C1(O)CCCCC1 (centres undefined),inactive: 0.414%,
CN1C(=O)C(O)(C2COC(C)(C)CC2=O)c2cc(Br)ccc21 (centres undefined),,active: 20.6 µM
COc1ccc(OC)c(NC(=O)C2C3C=CC(C3)C2C(=O)NCc2cccnc2)c1 (centres undefined),inactive: -2.53%,
O=c1cc(NS(=O)(=O)c2ccccc2)nc(SCc2ccc(Cl)cc2)[nH]1,inactive: -0.393%,
COC(=O)c1c(NC(=O)c2ccc(S(=O)(=O)N(C)C3CCCCC3)cc2)sc2c1CCN(C)C2,inactive: -27.5%,
Cc1cc(C)c(C#N)c(OCC2CCCO2)n1 (centres undefined),inactive: 22.7%,
CCOC(=O)C(Cc1ccccc1)NC(=O)CCc1c(C)nc2c(c(C)nn2-c2ccc(C)c(C)c2)c1C (centres undefined),inactive: 6.17%,
COCc1c(C(=O)Nc2ccc(C)c(S(=O)(=O)N3CCOCC3)c2)oc2ccccc12,,"inconclusive: 18.4 µM [cytotoxic, single point]"
O=C(Nc1cc(Cl)cc2c1-c1ccc(Cl)cc1C2O)C(Cl)Cl (centres undefined),,"inconclusive: 29.1 µM [cytotoxic, single point]"
Cc1ccc(OCC(=O)N2CCN(c3nnc(-c4ccc(C)cc4)c4ccccc34)CC2)cc1,,active: 16.4 µM
CCOC(=O)C1(S(=O)(=O)c2ccc(Cl)cc2)CCN(Cc2ccc(Cl)cc2)CC1,,"inconclusive: 23.1 µM [cytotoxic, single point]"
Cc1cccc(N2CCN(C(=O)CN3C(=O)COc4ccc(S(=O)(=O)N5CCCC5)cc43)CC2C)c1 (centres undefined),,"inconclusive: 20.6 µM [cytotoxic, single point]"

# Gathered by group, those above containing a cyano group.
SMILES,"activity change, negative = cytotoxic",Potency
COc1cc(-c2c(C#N)c(N)nc(SCc3ccncc3)c2C#N)cc(OC)c1OC,inactive: -1.43%,
Cc1cc(C)c(C#N)c(OCC2CCCO2)n1 (centres undefined),inactive: 22.7%,

# Additional records

SMILES,"activity change, negative = cytotoxic",Potency
O=C(CC1(O)C(=O)N(Cc2ccc3c(c2)OCO3)c2ccccc21)c1ccccc1 (centres undefined),,"inconclusive: 29.1 µM [cytotoxic, single point]"
CCn1c(SCC(=O)c2ccccc2)nnc1-c1cccc(Cl)c1,inactive: 2.19%,
CC1Cc2ccccc2N1C(=O)c1cc2sccc2n1Cc1ccc(F)cc1 (centres undefined),,"inconclusive: 16.4 µM [cytotoxic, single point]"
O=c1[nH]nc(Sc2ccccc2)c(=S)[nH]1,inactive: 20.8%,
O=C(NCCNc1ccnc2cc(Cl)ccc12)c1ccccc1F,,"inconclusive: 18.4 µM [cytotoxic, partial curve, poor fit]"
CCC(C)C(NC(=O)C1CCC(C)CC1)C(=O)Nc1ccc(OC)cc1 (centres undefined),,"inconclusive: 20.6 µM [cytotoxic, single point]"
CCOc1ccc(NS(=O)(=O)c2cc3c4c(c2)CCN4C(=O)CC3)cc1,inactive: -25.7%,
COc1ccc(CC(NC(C)=O)C(=O)NC2CCN(S(=O)(=O)c3ccc(NC(C)=O)cc3)CC2)c(OC)c1 (centres undefined),,"inconclusive: 20.6 µM [rising, single point]"
COc1ccc(NS(=O)(=O)c2cc(NC(=O)CCc3ccccc3)ccc2N2CCOCC2)cc1,inconclusive: 2.33%,
COc1ccc(C=C(C(=O)c2ccccc2)C(=O)c2ccccc2)cc1,,"inconclusive: 20.6 µM [cytotoxic, single point]"
CCN(CC)CCSc1nnc2c3cc(F)ccc3n(CC)c2n1,,"inconclusive: 3.66 µM [cytotoxic, partial curve, poor fit]"
C=CCNc1ncnc2c1[nH]c1ccc(C)cc12,,"inconclusive: 25.9 µM [cytotoxic, partial curve, poor fit]"
CCOc1ccc(Cn2c3ccc(OC)cc3c3nc4ccccc4nc32)cc1,,"inconclusive: 11.6 µM [cytotoxic, partial curve]"
CCCC(=O)Nc1ccc2nc(SCC(=O)Nc3ccc(N4CCOCC4)c(Cl)c3)sc2c1,,"inconclusive: 18.4 µM [cytotoxic, partial curve]"
CCNC(=O)c1ccc2c(c1)S(=O)(=O)c1ccccc1C2=O,,"inconclusive: 20.6 µM [rising, partial curve, poor fit]"
COC(=O)c1ccc(NC(=O)CN(Cc2ccccc2)S(=O)(=O)c2ccc(Cl)cc2)cc1,,"inconclusive: 29.1 µM [cytotoxic, single point]"
O=C(CSc1cn(CCNC(=O)c2cccs2)c2ccccc12)NC1CCCCC1,,"inconclusive: 32.6 µM [cytotoxic, single point]"
CC1CC(C)(C)n2c(O)c(N=NC(N)=S)c3cccc1c32 (centres undefined),,"inconclusive: 18.4 µM [cytotoxic, single point]"
N#Cc1c(NC(=S)NC(=O)Cc2cccs2)sc2c1CCCCC2,,"inconclusive: 29.1 µM [cytotoxic, single point]"
CCCn1c(-c2nonc2N)nc2ccccc21,inactive: 6.43%,
Cc1c(Cl)cccc1NC(=O)Nc1ccc2snnc2c1,,"inconclusive: 20.6 µM [cytotoxic, single point]"
Cc1ccc(S(=O)(=O)N2CC(O)C[C@H]2C(=O)OCC(=O)N2CCN(c3ccc(F)cc3)CC2)cc1C (some centres undefined),,"inconclusive: 14.6 µM [cytotoxic, partial curve, poor fit]"
COc1ccc(CNCC(O)(c2ccc(Cl)cc2)c2ccc(Cl)cc2)cc1,,"inconclusive: 23.1 µM [cytotoxic, single point]"

SMILES,"activity change, negative = cytotoxic",Potency
CCc1ccc(N(CC)C(=O)Cn2cnc3sc(C)c(S(=O)(=O)N4CCN(c5ncccn5)CC4)c3c2=O)cc1,inactive: 3.7%,
CCCOc1ccccc1C1C(C(=O)Nc2ccccc2)=C(C)Nc2nnnn21 (centres undefined),,"inconclusive: 29.1 µM [cytotoxic, single point]"
O=C(c1ccccc1)[C@@H]1[C@@H](C(=O)c2ccc(F)cc2)[C@@]2(C(=O)Nc3ccccc32)[C@H]2c3ccccc3C=CN12,,"inconclusive: 0.82 µM [rising, full curve, poor fit]"
O=C1C(=O)c2c(ccc3ccccc23)-c2ccccc21,,active: 4.11 µM
COc1ccc(OC)c(-c2csc(NC(=O)CSc3nnnn3C)n2)c1,,"inconclusive: 23.1 µM [rising, single point]"
O=C(N/N=C/c1cc(Br)ccc1O)c1ccncc1,,"inconclusive: 13 µM [cytotoxic, partial curve]"
CC1(C(=O)NC2CCN(Cc3ccccc3)CC2)CCN1Cc1ccc2ccccc2c1 (centres undefined),,"inconclusive: 23.1 µM [cytotoxic, single point]"
O=C(NCCc1csc(-c2cccnc2)n1)c1cccs1,inactive: -4.32%,
CNC(=O)C1CCN(S(=O)(=O)c2c(C)noc2/C=C/c2ccccc2F)CC1,inactive: 8.62%,
COc1ccc(/C=C(\NC(=O)c2cccs2)C(=O)NN)cc1OC,inactive: 0.34%,
Cc1ccc(Nc2nc(NCc3ccco3)nc3nccnc23)cc1,,"inconclusive: 6.51 µM [rising, partial curve, poor fit]"
O=C(c1cc(COc2c(F)cccc2F)on1)N1CCC(c2ccncc2)CC1,,active: 23.1 µM
COc1ccccc1CNC(=O)Cn1c(=O)oc2cc(S(=O)(=O)N3CCCC3)ccc21,,"inconclusive: 20.6 µM [cytotoxic, single point]"
COCOc1cc(O)c2c(=O)c(OCOC)c(-c3ccc(OCOC)c(OCOC)c3)oc2c1,,"inconclusive: 29.1 µM [cytotoxic, partial curve, poor fit]"
N#CCSc1nnc(-c2ccccc2O)n1CCc1ccccc1,,"inconclusive: 4.61 µM [cytotoxic, partial curve, poor fit]"
CC(=O)Oc1ccc(-c2csnn2)cc1,inactive: 18.3%,
COc1cccc(CC2(CO)CCCN(Cc3ccc(OC)c(C)c3OC)C2)c1 (centres undefined),,"inconclusive: 25.9 µM [cytotoxic, single point]"
O=C(O)Cc1sc(Nc2cccc3ccccc23)nc1-c1ccccc1,inactive: -2.04%,
CC(=O)c1c(C)[nH]c(C(=O)OCCOc2ccccc2)c1C,,"inconclusive: 29.1 µM [cytotoxic, single point]"
CCCCN(C)CCNC(=O)c1ccc(Cn2c(=O)[nH]c3cc(OC)c(OC)cc3c2=O)cc1,inconclusive: 1.5%,
C=CCn1c(SCc2ccc(C(=O)Nc3nccs3)cc2)nnc1-c1ccc(C)c(Cl)c1,,"inconclusive: 29.1 µM [cytotoxic, single point]"
c1ccc(-c2nnc(-c3ccco3)o2)cc1,inactive: -18.9%,
O=C(NC1CCCCC1)c1n[nH]c2c1CCCCC2,,"inconclusive: 14.6 µM [cytotoxic, partial curve, poor fit]"
